In patent publication US12539326B2, “Methods for treating Alzheimer's disease using semaglutide” (Novo Nordisk A/S, priority 2019, dated 2026):

Experiment: Body weight and blood glucose in SAMP8 mice
Format: in vivo, mouse
Conditions: mean

For “N-epsilon26-[2-(2-{2-[2-(2-{2-[(S)-4-Carboxy-4-(17-carboxyheptadecanoylamino)butyrylamino] ethoxy}ethoxy)acetylamino]ethoxy} ethoxy)acetyl][Aib8,Arg34]GLP-1-(7-37) [semaglutide]”, the body weight (16 weeks of age, SEM 0.7 grams, vehicle 31.0 grams, no difference) was 29.2 grams, the “change in body weight from baseline” value (16 weeks of age, SEM 4.2%, vehicle 148.0%) was 145.4% and the blood glucose (SEM 2.2 mg/dL, vehicle 137.1 mg/dL, no difference) was 133.1 mg/dL.
